This is one part of the list.
Legend:
Assay in all cases: glycan array binding signal (z-score within array); higher = stronger binding
Conditions in all cases: glycan notation: IUPAC condensed, linker removed
GlcNAc(b1-3)GalNAc = biological target: GlcNAc(b1-3)GalNAc
How it was run: (§1)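 Glycan array data were curated from 3228 arrays in the Consortium for Functional Glycomics database and kept only where the protein sequence was available. Glycan names were converted to IUPAC-condensed notation, and columns mapping to the same glycan were averaged. The binding signal is a within-array Z-score, averaged across arrays of the same protein sequence at different concentrations or buffers and across linkers. Negative Z-scores can be read as non-binding.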

GlcNAc(b1-3)Man = biological target: GlcNAc(b1-3)Man
How it was run: as §1

[1] = biological target: GlcNAc(b1-3)[GlcNAc(b1-4)][GlcNAc(b1-6)]GlcNAc
How it was run: as §1

[2] = biological target: GlcNAc(b1-3)[GlcNAc(b1-6)]Gal(b1-4)GlcNAc
How it was run: as §1

[3] = biological target: GlcNAc(b1-3)[GlcNAc(b1-6)]GalNAc
How it was run: as §1

[4] = biological target: GlcNAc(b1-4)Gal(b1-4)GlcNAc
How it was run: as §1

GlcNAc(b1-4)GlcNAc = biological target: GlcNAc(b1-4)GlcNAc
How it was run: as §1

[5] = biological target: GlcNAc(b1-4)GlcNAc(b1-4)GlcNAc
How it was run: as §1

[6] = biological target: GlcNAc(b1-4)GlcNAc(b1-4)GlcNAc(b1-4)GlcNAc(b1-4)GlcNAc
How it was run: as §1

[7] = biological target: GlcNAc(b1-4)GlcNAc(b1-4)GlcNAc(b1-4)GlcNAc(b1-4)GlcNAc(b1-4)GlcNAc
How it was run: as §1

[8] = biological target: GlcNAc(b1-4)[GlcNAc(b1-6)]GalNAc
How it was run: as §1

[9] = biological target: GlcNAc(b1-6)Gal(b1-4)GlcNAc
How it was run: as §1

GlcNAc(b1-6)GalNAc = biological target: GlcNAc(b1-6)GalNAc
How it was run: as §1

[10] = biological target: GlcNAc6S(b1-3)Gal(b1-4)GlcNAc
How it was run: as §1

Kdn(a2-3)Gal(b1-3)GalNAc = biological target: Kdn(a2-3)Gal(b1-3)GalNAc
How it was run: as §1

Kdn(a2-3)Gal(b1-3)GlcNAc = biological target: Kdn(a2-3)Gal(b1-3)GlcNAc
How it was run: as §1

Kdn(a2-3)Gal(b1-4)Glc = biological target: Kdn(a2-3)Gal(b1-4)Glc
How it was run: as §1

Kdn(a2-3)Gal(b1-4)GlcNAc = biological target: Kdn(a2-3)Gal(b1-4)GlcNAc
How it was run: as §1

[11] = biological target: Kdn(a2-3)Gal(b1-4)[Fuc(a1-3)]GlcNAc
How it was run: as §1

Kdn(a2-6)Gal(b1-4)GlcNAc = biological target: Kdn(a2-6)Gal(b1-4)GlcNAc
How it was run: as §1

[12] = biological target: Man(a1-2)Man(a1-2)Man(a1-3)Man
How it was run: as §1

[13] = biological target: Man(a1-2)Man(a1-2)Man(a1-6)[Man(a1-3)]Man
How it was run: as §1

Man(a1-2)Man(a1-3)Man = biological target: Man(a1-2)Man(a1-3)Man
How it was run: as §1

[14] = biological target: Man(a1-2)Man(a1-3)[Man(a1-2)Man(a1-6)]Man
How it was run: as §1

[15] = biological target: Man(a1-2)Man(a1-3)[Man(a1-2)Man(a1-6)]Man(a1-6)[Man(a1-2)Man(a1-2)Man(a1-3)]Man
How it was run: as §1

[16] = biological target: Man(a1-2)Man(a1-3)[Man(a1-2)Man(a1-6)]Man(a1-6)[Man(a1-2)Man(a1-2)Man(a1-3)]Man(b1-4)GlcNAc(b1-4)GlcNAc
How it was run: as §1

[17] = biological target: Man(a1-2)Man(a1-3)[Man(a1-6)]Man(a1-6)[Man(a1-2)Man(a1-3)]Man(b1-4)GlcNAc(b1-4)GlcNAc
How it was run: as §1

[18] = biological target: Man(a1-2)Man(a1-6)[Man(a1-3)]Man(a1-6)[Man(a1-2)Man(a1-2)Man(a1-3)]Man
How it was run: as §1

[19] = biological target: Man(a1-2)Man(a1-6)[Man(a1-3)]Man(a1-6)[Man(a1-2)Man(a1-2)Man(a1-3)]Man(b1-4)GlcNAc(b1-4)GlcNAc
How it was run: as §1

Man(a1-3)[Man(a1-6)]Man = biological target: Man(a1-3)[Man(a1-6)]Man
How it was run: as §1

[20] = biological target: Man(a1-3)[Man(a1-6)]Man(a1-6)[Man(a1-2)Man(a1-3)]Man(b1-4)GlcNAc(b1-4)GlcNAc
How it was run: as §1

[21] = biological target: Man(a1-3)[Man(a1-6)]Man(a1-6)[Man(a1-3)]Man
How it was run: as §1

[22] = biological target: Man(a1-3)[Man(a1-6)]Man(a1-6)[Man(a1-3)]Man(b1-4)GlcNAc(b1-4)GlcNAc
How it was run: as §1

[23] = biological target: Man(a1-3)[Man(a1-6)]Man(b1-4)GlcNAc(b1-4)GlcNAc
How it was run: as §1

[24] = biological target: Man(a1-3)[Man(a1-6)]Man(b1-4)GlcNAc(b1-4)[Fuc(a1-6)]GlcNAc
How it was run: as §1

Man(a1-6)Man = biological target: Man(a1-6)Man
How it was run: as §1

Man(b1-4)GlcNAc = biological target: Man(b1-4)GlcNAc
How it was run: as §1

MurNAc(b1-4)GlcNAc = biological target: MurNAc(b1-4)GlcNAc
How it was run: as §1

B1: ERGIC1-EDTA (Homo sapiens), Q969X5 (protein)
chain: MKFLVNVALVFMVVYISYIYAAAHMHHHHHHDYDIPTTENLYFQGSEVVNELYVDDPDKDSGGKIDVSLNISLPNLHCELVGLDIQDEMGRHEVGHIDNSMKIPLNNGAGCRFEGQFSINKVPGNFHVSTHSATAQPQNPDMTHVIHKLSFGDTLQVQNIHGAFNALGGADRLTSNPLASHDYILKIVPTVYEDKSGKQRYSYQYTVANKEYVAYSHTGRIIPAIWFRYDLSPITVKYTE
- glycan array binding signal (z-score) (GlcNAc(b1-3)GalNAc): -0.014
- glycan array binding signal (z-score) (GlcNAc(b1-3)Man): -0.479
- glycan array binding signal (z-score) [1]: -1.08
- glycan array binding signal (z-score) [2]: 0.206
- glycan array binding signal (z-score) [3]: -0.049
- glycan array binding signal (z-score) [4]: 0.824
- glycan array binding signal (z-score) (GlcNAc(b1-4)GlcNAc): 0.338
- glycan array binding signal (z-score) [5]: -0.483
- glycan array binding signal (z-score) [6]: -0.937
- glycan array binding signal (z-score) [7]: -1.06
- glycan array binding signal (z-score) [8]: -0.971
- glycan array binding signal (z-score) [9]: -0.239
- glycan array binding signal (z-score) (GlcNAc(b1-6)GalNAc): -0.559
- glycan array binding signal (z-score) [10]: 0.216
- glycan array binding signal (z-score) (Kdn(a2-3)Gal(b1-3)GalNAc): 1.61
- glycan array binding signal (z-score) (Kdn(a2-3)Gal(b1-3)GlcNAc): -0.154
- glycan array binding signal (z-score) (Kdn(a2-3)Gal(b1-4)Glc): 0.11
- glycan array binding signal (z-score) (Kdn(a2-3)Gal(b1-4)GlcNAc): -0.433
- glycan array binding signal (z-score) [11]: 0.586
- glycan array binding signal (z-score) (Kdn(a2-6)Gal(b1-4)GlcNAc): 1.73
- glycan array binding signal (z-score) [12]: -0.557
- glycan array binding signal (z-score) [13]: -0.459
- glycan array binding signal (z-score) (Man(a1-2)Man(a1-3)Man): -0.345
- glycan array binding signal (z-score) [14]: -0.556
- glycan array binding signal (z-score) [15]: 0.464
- glycan array binding signal (z-score) [16]: -0.2
- glycan array binding signal (z-score) [17]: -0.931
- glycan array binding signal (z-score) [18]: 0.324
- glycan array binding signal (z-score) [19]: -0.516
- glycan array binding signal (z-score) (Man(a1-3)[Man(a1-6)]Man): -0.591
- glycan array binding signal (z-score) [20]: -0.888
- glycan array binding signal (z-score) [21]: 0.494
- glycan array binding signal (z-score) [22]: 0.189
- glycan array binding signal (z-score) [23]: 0.178
- glycan array binding signal (z-score) [24]: 2.1
- glycan array binding signal (z-score) (Man(a1-6)Man): 0.405
- glycan array binding signal (z-score) (Man(b1-4)GlcNAc): 0.059
- glycan array binding signal (z-score) (MurNAc(b1-4)GlcNAc): -0.587
